# Assay results published in US20110313018A1.
# No constants are given. Whether binding was seen depends on the method and setting. In cells and extracts the contact can be indirect. Some results given as binding are weak or reduced against the parent protein; the word gives no strength. Sequences can lack the tags named with a protein.
# T1: 3xFLAG-PBK/TOPK (pCAGGSn3F-PBK/TOPK, expressed in HEK293 cells) (human) (UniProt Q96KB5)
# T1 sequence: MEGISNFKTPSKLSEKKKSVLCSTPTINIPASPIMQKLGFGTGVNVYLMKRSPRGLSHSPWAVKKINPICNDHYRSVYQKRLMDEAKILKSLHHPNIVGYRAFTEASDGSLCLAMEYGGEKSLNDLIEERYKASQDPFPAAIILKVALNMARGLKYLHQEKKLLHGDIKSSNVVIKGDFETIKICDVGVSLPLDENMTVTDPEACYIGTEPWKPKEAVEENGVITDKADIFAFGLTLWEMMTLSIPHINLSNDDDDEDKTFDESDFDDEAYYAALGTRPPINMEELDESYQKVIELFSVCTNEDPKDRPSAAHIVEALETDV
# B1: HA-LGN/GPSM2 (pCAGGSnHA-LGN/GPSM2, N-terminal HA tag, expressed in HEK293 cells) (protein, not shown: small tags and cut ends)
# chain: MREDHSFHVRYRMEASCLELALEGERLCKSGDCRAGVSFFEAAVQVGTEDLKTLSAIYSQLGNAYFYLHDYAKALEYHHHDLTLARTIGDQLGEAKASGNLGNTLKVLGNFDEAIVCCQRHLDISRELNDKVGEARALYNLGNVYHAKGKSFGCPGPQDVGEFPEEVRDALQAAVDFYEENLSLVTALGDRAAQGRAFGNLGNTHYLLGNFRDAVIAHEQRLLIAKEFGDKAAERRAYSNLGNAYIFLGEFETASEYYKKTLLLARQLKDRAVEAQSCYSLGNTYTLLQDYEKAIDYHLKHLAIAQELNDRIGEGRACWSLGNAYTALGNHDQAMHFAEKHLEISREVGDKSGELTARLNLSDLQMVLGLSYSTNNSIMSENTEIDSSLNGVLPKLGRRHSMENMELMKLTPEKVQNWNSEILAKQKPLIAKPSAKLLFVNRLKGKKYKTNSSTKVLQDASNSIDHRIPNSQRKISADTIGDEGFFDLLSRFQSNRMDDQRCCLQEKNCHTASTTTSSTPPKMMLKTSSVPVVSPNTDEFLDLLASSQSRRLDDQRASFSNLPGLRLTQNSQSVLSHLMTNDNKEADEDFFDILVKCQGSRLDDQRCAPPPATTKGPTVPDEDFFSLILRSQGKRMDEQRVLLQRDQNRDTDFGLKDFLQNNALLEFKNSGKKSADH
# Biological target: T1, 3xFLAG-PBK/TOPK (pCAGGSn3F-PBK/TOPK, expressed in HEK293 cells) (human)
# Assay: co-immunoprecipitation with anti-HA agarose from co-transfected HEK293 cells, western blot
binder,measurement,value
B1,binding,binds
